Data published in PubChem BioAssay AID248 (DTP/NCI, 2004).
The list shows only some results of the screen, not a fair sample: it gathers tests that were run many times, whatever their T/C, doses with no T/C, and many T/C values between a quarter and a half above the control. Further doses and runs are listed elsewhere. T/C: endpoint of the treated group in % of that of the vehicle group. Some entries give survivors of the animals treated and no T/C: the source holds a T/C of zero for them, seemingly a mark for toxic or unscored doses. Some survivor counts are full or nearly so, which does not show that the dose was tolerated: the source hardly ever lists a survival T/C far under the control, and the zero likely stands for such cases as well. Survivors were counted at the toxicity check, usually on the fifth day, unless a day is given; later deaths do not show. Schedule codes are those of the source, taken here to give the interval after Q, in days (D) or hours (H), and the number of doses after X. Some structures stand for samples that the source files as different forms (salt, stereo form or complex); doses refer to the form tested. Some doses were run more than once; the values are given in rising order. Where survival is the endpoint, the PubChem record calls one and a half times the control and up active, and a quarter to a half above the control has no call in these data; cut-offs in other NCI protocols can differ.

System: L1210 leukemia ip in BDF1 mice, survival T/C
Assay: NCI In Vivo Anticancer Drug Screen. Data for tumor model L1210 Leukemia (intraperitoneal) in B6D2F1 (BDF1) mice
Conditions: T/C endpoint: mean survival time, higher T/C = longer survival
[1] = dose: 400.0 mg/kg/injection, schedule: Q01DX001 (ip), vehicle: saline
[2] = dose: 400.0 mg/kg/injection, schedule: Q04DX003 (ip), vehicle: Klucel (hydroxypropylcellulose) (HPC)
[3] = dose: 200.0 mg/kg/injection, schedule: Q04DX002 (ip), vehicle: saline with Tween-80
[4] = dose: 200.0 mg/kg/injection, schedule: Q04DX002 (ip), vehicle: Klucel (hydroxypropylcellulose) (HPC)
[5] = dose: 150.0 mg/kg/injection, schedule: Q01DX001 (ip), vehicle: saline
[6] = dose: 300.0 mg/kg/injection, schedule: Q01DX001 (ip), vehicle: saline

Compound: O=C1CC2OCC=C3CN4CCC56c7ccccc7N1C5C2C3CC46 (stereo not given) (tested in a mixture with another compound)
- survivor count (dose: 2.3 mg/kg/injection, schedule: Q01DX009 (ip), vehicle: saline): 0 of 6
- survivor count (dose: 3.0 mg/kg/injection, schedule: Q01DX009 (ip), vehicle: Klucel (hydroxypropylcellulose) (HPC)): 0 of 6 and 2 of 6
- survivor count (dose: 3.0 mg/kg/injection, schedule: Q04DX003 (ip), vehicle: Klucel (hydroxypropylcellulose) (HPC)): 3 of 6
- survivor count (dose: 3.12 mg/kg/injection, schedule: Q04DX003 (ip), vehicle: alcohol): 4 of 6
- survivor count (dose: 3.12 mg/kg/injection, schedule: Q04DX003 (ip), vehicle: saline): 3 of 6
- survivor count (dose: 3.13 mg/kg/injection, schedule: Q04DX003 (ip), vehicle: saline + alcohol): 0 of 6
- survivor count (dose: 3.5 mg/kg/injection, schedule: Q01DX009 (ip), vehicle: saline): 0 of 6
- survivor count (dose: 5.2 mg/kg/injection, schedule: Q01DX009 (ip), vehicle: saline): 0 of 6
- survivor count (dose: 6.0 mg/kg/injection, schedule: Q01DX009 (ip), vehicle: Klucel (hydroxypropylcellulose) (HPC)): 0 of 6
- survivor count (dose: 6.0 mg/kg/injection, schedule: Q04DX003 (ip), vehicle: Klucel (hydroxypropylcellulose) (HPC)): 0 of 6
- survivor count (dose: 6.25 mg/kg/injection, schedule: Q04DX003 (ip), vehicle: alcohol): 0 of 6
- survivor count (dose: 12.0 mg/kg/injection, schedule: Q01DX009 (ip), vehicle: Klucel (hydroxypropylcellulose) (HPC)): 0 of 6
- survivor count (dose: 12.0 mg/kg/injection, schedule: Q04DX003 (ip), vehicle: Klucel (hydroxypropylcellulose) (HPC)): 0 of 6
- survivor count (dose: 12.5 mg/kg/injection, schedule: Q01DX001 (ip), vehicle: saline): 0 of 6
- survivor count (dose: 12.5 mg/kg/injection, schedule: Q01DX009 (ip), vehicle: Klucel (hydroxypropylcellulose) (HPC)): 0 of 6
- survivor count (dose: 12.5 mg/kg/injection, schedule: Q04DX003 (ip), vehicle: saline): 0 of 6
- survivor count (dose: 25.0 mg/kg/injection, schedule: Q01DX001 (ip), vehicle: saline): 0 of 6
- survivor count (dose: 25.0 mg/kg/injection, schedule: Q01DX009 (ip), vehicle: Klucel (hydroxypropylcellulose) (HPC)): 0 of 6
- survivor count (dose: 25.0 mg/kg/injection, schedule: Q04DX003 (ip), vehicle: Klucel (hydroxypropylcellulose) (HPC)): 0 of 6
- survivor count (dose: 25.0 mg/kg/injection, schedule: Q04DX003 (ip), vehicle: saline): 0 of 6
- survivor count (dose: 50.0 mg/kg/injection, schedule: Q01DX001 (ip), vehicle: saline): 0 of 6
- survivor count (dose: 50.0 mg/kg/injection, schedule: Q01DX009 (ip), vehicle: Klucel (hydroxypropylcellulose) (HPC)): 0 of 6
- survivor count (dose: 50.0 mg/kg/injection, schedule: Q04DX003 (ip), vehicle: Klucel (hydroxypropylcellulose) (HPC)): 0 of 6
- survivor count (dose: 50.0 mg/kg/injection, schedule: Q04DX003 (ip), vehicle: saline): 0 of 6
- survivor count (dose: 100.0 mg/kg/injection, schedule: Q01DX001 (ip), vehicle: saline): 0 of 6
- survivor count (dose: 100.0 mg/kg/injection, schedule: Q04DX003 (ip), vehicle: Klucel (hydroxypropylcellulose) (HPC)): 0 of 6
- survivor count (dose: 100.0 mg/kg/injection, schedule: Q04DX003 (ip), vehicle: alcohol): 0 of 6
- survivor count (dose: 200.0 mg/kg/injection, schedule: Q01DX001 (ip), vehicle: saline): 0 of 6
- survivor count (dose: 200.0 mg/kg/injection, schedule: Q04DX003 (ip), vehicle: Klucel (hydroxypropylcellulose) (HPC)): 0 of 6
- survivor count (dose: 200.0 mg/kg/injection, schedule: Q04DX003 (ip), vehicle: alcohol): 0 of 6
- survivor count [1]: 0 of 6
- survivor count [2]: 0 of 6
- survivor count (dose: 400.0 mg/kg/injection, schedule: Q04DX003 (ip), vehicle: alcohol): 0 of 6

Compound: C=C[CH2][Sn]([CH2]C=C)([c]1ccccc1)[c]1ccccc1
- survivor count (dose: 100.0 mg/kg/injection, schedule: Q04DX002 (ip), vehicle: saline with Tween-80): 0 of 3
- survivor count [3]: 0 of 3
- survivor count (dose: 400.0 mg/kg/injection, schedule: Q04DX002 (ip), vehicle: saline with Tween-80): 0 of 3

Compound: NC(=O)OCCI
- T/C (dose: 100.0 mg/kg/injection, schedule: Q01DX009 (ip), vehicle: saline): 132 % of control
- survivor count (dose: 200.0 mg/kg/injection, schedule: Q01DX009 (ip), vehicle: saline): 2 of 6

Compound: O=NN(CCCl)C(=O)N[C@@H]1CCCC[C@H]1NC(=O)N(CCCl)N=O
- T/C (dose: 3.75 mg/kg/injection, schedule: Q01DX001 (ip), vehicle: carboxymethylcellulose (CMC)): 135 % of control
- T/C (dose: 7.5 mg/kg/injection, schedule: Q01DX001 (ip), vehicle: carboxymethylcellulose (CMC)): 133 % of control
- T/C (dose: 10.0 mg/kg/injection, schedule: Q01DX001 (ip), vehicle: carboxymethylcellulose (CMC)): 132 % of control
- T/C (dose: 15.0 mg/kg/injection, schedule: Q01DX001 (ip), vehicle: carboxymethylcellulose (CMC)): 144 % of control
- survivor count [1]: 6 of 6
- survivor count (dose: 500.0 mg/kg/injection, schedule: Q01DX001 (ip), vehicle: saline): 6 of 6
- survivor count (dose: 600.0 mg/kg/injection, schedule: Q01DX001 (ip), vehicle: saline): 6 of 6
- survivor count (dose: 800.0 mg/kg/injection, schedule: Q01DX001 (ip), vehicle: saline): 6 of 6
- survivor count (dose: 1000.0 mg/kg/injection, schedule: Q01DX001 (ip), vehicle: saline): 6 of 6

Compound: O=C1c2ccccc2C(=O)N1N(c1ccccc1)c1ccccc1
- survivor count (dose: 100.0 mg/kg/injection, schedule: Q01DX009 (ip), vehicle: Klucel (hydroxypropylcellulose) (HPC)): 3 of 6

Compound: Cc1cc(=O)c2cc(Cc3ccc(N)cc3)ccc2[nH]1
- survivor count [1]: 1 of 6

Compound: O=C(O)c1ccc(S(=O)(=O)Cl)cc1
- survivor count (dose: 100.0 mg/kg/injection, schedule: Q04DX002 (ip), vehicle: Klucel (hydroxypropylcellulose) (HPC)): 3 of 3
- survivor count [4]: 3 of 3
- survivor count (dose: 400.0 mg/kg/injection, schedule: Q04DX002 (ip), vehicle: Klucel (hydroxypropylcellulose) (HPC)): 2 of 3

Compound: CS(=O)(=O)OC12CC3CC(CC(C3)C1)C2
- survivor count [1]: 3 of 6

Compound: O=C(O)CC(=O)c1ccc(I)cc1
- survivor count [5]: 0 of 6
- survivor count [6]: 0 of 6

Compound: CNC(COC(=O)c1ccc(N)cc1)C1CCCCC1 (stereo not given)
- survivor count [5]: 2 of 6
- survivor count [6]: 0 of 6

Compound: O=[N+]([O-])c1cccnc1Cl
- survivor count [2]: 0 of 6

Compound: CNC(=O)N(C(C)C)C1CCCCC1
- survivor count (dose: 400.0 mg/kg/injection, schedule: Q04DX003 (ip), vehicle: other): 2 of 6

Compound: CCCCCC(CN(C)C)C(=O)/C=C/c1ccc(Cl)cc1 (stereo not given)
- survivor count (dose: 100.0 mg/kg/injection, schedule: Q04DX003 (sc), vehicle: steroid suspending solution): 6 of 6
- survivor count (dose: 170.0 mg/kg/injection, schedule: Q01DX009 (sc), vehicle: other): 0 of 6
- survivor count (dose: 200.0 mg/kg/injection, schedule: Q04DX003 (sc), vehicle: steroid suspending solution): 4 of 6
- survivor count (dose: 400.0 mg/kg/injection, schedule: Q01DX001 (sc), vehicle: steroid suspending solution): 0 of 6

Compound: CCc1cc2oc(C)c(C)c2c2nc(C)oc12
- survivor count [4]: 3 of 3

Compound: CN(C)C1CCCC/C=C\C(=O)NC1 (stereo not given)
- survivor count [5]: 2 of 6
- survivor count [6]: 0 of 6

Compound: c1ccc(Cc2[nH]c3ccccc3c2-c2ccccc2)cc1
- survivor count (dose: 400.0 mg/kg/injection, schedule: Q01DX009 (ip), vehicle: saline with Tween-80): 3 of 3

Compound: CC(C)P(=O)(CC(=O)O)c1ccccc1 (stereo not given)
- survivor count [3]: 3 of 3

Compound: Cn1cnc2c(C#N)c(C#N)nn2c1=O
- survivor count (dose: 400.0 mg/kg/injection, schedule: Q01DX001 (ip), vehicle: carboxymethylcellulose (CMC)): 0 of 4

Compound: O=C1OC2C(I)C3CC1C2C3 (stereo not given)
- survivor count (dose: 200.0 mg/kg/injection, schedule: Q01DX009 (ip), vehicle: saline with Tween-80): 5 of 6
